Among the data in article PMC7568260, “In vitro reconstitution and characterization of pyruvate dehydrogenase and 2‐oxoglutarate dehydrogenase hybrid complex from Corynebacterium glutamicum” (MicrobiologyOpen, 2020) are binding values, retold here.

The chains behind the UniProt entries cited, without tags or fusion partners.
UniProt P06959: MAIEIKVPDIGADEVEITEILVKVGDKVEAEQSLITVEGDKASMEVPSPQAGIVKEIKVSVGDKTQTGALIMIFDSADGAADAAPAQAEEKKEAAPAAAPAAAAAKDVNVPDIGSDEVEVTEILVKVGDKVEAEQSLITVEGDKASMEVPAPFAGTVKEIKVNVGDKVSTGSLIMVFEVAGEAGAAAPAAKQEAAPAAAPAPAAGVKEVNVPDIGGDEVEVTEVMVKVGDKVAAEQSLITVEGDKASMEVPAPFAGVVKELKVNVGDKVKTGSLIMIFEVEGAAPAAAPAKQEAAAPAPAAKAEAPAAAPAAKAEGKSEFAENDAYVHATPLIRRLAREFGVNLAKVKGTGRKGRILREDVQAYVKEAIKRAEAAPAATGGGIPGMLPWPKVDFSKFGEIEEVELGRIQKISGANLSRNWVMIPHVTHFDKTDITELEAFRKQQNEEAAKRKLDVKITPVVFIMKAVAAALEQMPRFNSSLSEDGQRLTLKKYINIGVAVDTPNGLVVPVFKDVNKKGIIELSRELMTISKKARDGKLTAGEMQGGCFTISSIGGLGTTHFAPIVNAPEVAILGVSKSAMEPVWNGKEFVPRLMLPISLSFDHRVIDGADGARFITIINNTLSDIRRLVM
UniProt P0AFG8: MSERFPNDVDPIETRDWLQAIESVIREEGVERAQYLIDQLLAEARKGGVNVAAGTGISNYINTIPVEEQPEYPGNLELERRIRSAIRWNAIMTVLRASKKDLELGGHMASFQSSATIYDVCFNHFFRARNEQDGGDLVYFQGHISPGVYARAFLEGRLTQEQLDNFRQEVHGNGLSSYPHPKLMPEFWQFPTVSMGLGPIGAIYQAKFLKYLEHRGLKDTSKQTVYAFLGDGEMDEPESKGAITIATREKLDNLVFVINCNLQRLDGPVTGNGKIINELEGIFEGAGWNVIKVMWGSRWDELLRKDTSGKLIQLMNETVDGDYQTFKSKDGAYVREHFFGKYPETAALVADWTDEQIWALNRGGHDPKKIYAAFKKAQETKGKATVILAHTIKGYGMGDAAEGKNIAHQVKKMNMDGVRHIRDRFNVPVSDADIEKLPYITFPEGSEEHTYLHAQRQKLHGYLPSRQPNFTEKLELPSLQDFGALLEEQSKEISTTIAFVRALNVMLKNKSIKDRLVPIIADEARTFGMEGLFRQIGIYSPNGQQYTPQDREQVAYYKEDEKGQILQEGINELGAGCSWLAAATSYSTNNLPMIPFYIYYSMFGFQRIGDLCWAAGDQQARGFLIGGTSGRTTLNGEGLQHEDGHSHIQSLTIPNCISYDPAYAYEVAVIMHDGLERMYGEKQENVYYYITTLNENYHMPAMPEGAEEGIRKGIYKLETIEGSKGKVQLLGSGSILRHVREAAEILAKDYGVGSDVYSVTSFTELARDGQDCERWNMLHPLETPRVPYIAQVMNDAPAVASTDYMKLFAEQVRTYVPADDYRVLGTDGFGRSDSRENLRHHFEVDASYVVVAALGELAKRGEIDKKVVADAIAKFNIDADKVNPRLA
UniProt P0A9P0: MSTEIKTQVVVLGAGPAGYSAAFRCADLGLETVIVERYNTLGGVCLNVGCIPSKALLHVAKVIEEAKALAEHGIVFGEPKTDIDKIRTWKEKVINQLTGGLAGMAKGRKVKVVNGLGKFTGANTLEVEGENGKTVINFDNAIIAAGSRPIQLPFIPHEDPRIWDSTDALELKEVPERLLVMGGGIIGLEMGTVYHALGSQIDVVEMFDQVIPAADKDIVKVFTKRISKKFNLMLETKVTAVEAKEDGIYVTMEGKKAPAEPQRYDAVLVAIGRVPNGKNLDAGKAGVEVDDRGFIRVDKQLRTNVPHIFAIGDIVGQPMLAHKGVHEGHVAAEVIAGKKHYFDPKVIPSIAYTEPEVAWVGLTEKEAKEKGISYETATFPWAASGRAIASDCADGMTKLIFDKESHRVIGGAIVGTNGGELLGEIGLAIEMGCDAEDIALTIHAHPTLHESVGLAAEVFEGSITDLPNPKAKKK

Assay [1] deals with E. coli AceF (E2p), endogenous (Escherichia coli (endogenous in DH5α)) (UniProt P06959). Put plainly: co-sedimentation; E. coli DH5α cleared lysate on a 15%–45% sucrose density gradient (also 10%–30%, Figure A1) in 50 mM TES-NaOH pH 7.6, 36,000 rpm, 17 h, 4°C; fractions read by Western blot. On the technique in general: A western blot detects proteins with antibodies after separation by electrophoresis.

Assay [2] deals with T1, E. coli SucB (E2o), endogenous (Escherichia coli (endogenous in DH5α)) (UniProt P0AFG6).
T1 sequence: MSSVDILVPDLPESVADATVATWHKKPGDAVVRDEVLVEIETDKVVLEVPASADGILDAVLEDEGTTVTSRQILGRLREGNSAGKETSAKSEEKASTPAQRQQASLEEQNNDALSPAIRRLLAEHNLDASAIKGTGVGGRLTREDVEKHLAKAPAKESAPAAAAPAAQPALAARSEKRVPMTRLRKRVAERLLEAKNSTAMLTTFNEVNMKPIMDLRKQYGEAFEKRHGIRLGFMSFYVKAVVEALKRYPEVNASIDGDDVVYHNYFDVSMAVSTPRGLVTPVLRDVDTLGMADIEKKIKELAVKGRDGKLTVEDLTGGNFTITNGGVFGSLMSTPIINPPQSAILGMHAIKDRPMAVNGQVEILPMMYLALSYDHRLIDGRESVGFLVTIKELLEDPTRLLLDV
The assay is described as above.

Results are given in words; binding and its absence hold for the method and conditions named. In cells and extracts the contact can be indirect. Some binding calls cover weakened binding; strength is not graded here.

Consider “E. coli AceE (E1p), endogenous (from UniProt P0AFG8 1-887) (enzyme)”, for which the binding result in assay [1] is reported as “binds”.

On to “E. coli Lpd (E3), endogenous (from UniProt P0A9P0 1-474) (enzyme)”, for which the binding entry in assay [2] and in assay [1] was “binds” throughout.

B1: E. coli SucA (E1o), endogenous (enzyme, UniProt P0AFG3 1-933)
chain: MQNSALKAWLDSSYLSGANQSWIEQLYEDFLTDPDSVDANWRSTFQQLPGTGVKPDQFHSQTREYFRRLAKDASRYSSTISDPDTNVKQVKVLQLINAYRFRGHQHANLDPLGLWQQDKVADLDPSFHDLTEADFQETFNVGSFASGKETMKLGELLEALKQTYCGPIGAEYMHITSTEEKRWIQQRIESGRATFNSEEKKRFLSELTAAEGLERYLGAKFPGAKRFSLEGGDALIPMLKEMIRHAGNSGTREVVLGMAHRGRLNVLVNVLGKKPQDLFDEFAGKHKEHLGTGDVKYHMGFSSDFQTDGGLVHLALAFNPSHLEIVSPVVIGSVRARLDRLDEPSSNKVLPITIHGDAAVTGQGVVQETLNMSKARGYEVGGTVRIVINNQVGFTTSNPLDARSTPYCTDIGKMVQAPIFHVNADDPEAVAFVTRLALDFRNTFKRDVFIDLVCYRRHGHNEADEPSATQPLMYQKIKKHPTPRKIYADKLEQEKVATLEDATEMVNLYRDALDAGDCVVAEWRPMNMHSFTWSPYLNHEWDEEYPNKVEMKRLQELAKRISTVPEAVEMQSRVAKIYGDRQAMAAGEKLFDWGGAENLAYATLVDEGIPVRLSGEDSGRGTFFHRHAVIHNQSNGSTYTPLQHIHNGQGAFRVWDSVLSEEAVLAFEYGYATAEPRTLTIWEAQFGDFANGAQVVIDQFISSGEQKWGRMCGLVMLLPHGYEGQGPEHSSARLERYLQLCAEQNMQVCVPSTPAQVYHMLRRQALRGMRRPLVVMSPKSLLRHPLAVSSLEELANGTFLPAIGEIDELDPKGVKRVVMCSGKVYYDLLEQRRKNNQHDVAIVRIEQLYPFPHKAMQEVLQQFAHVKDFVWCQEEPLNQGAWYCSQHHFREVIPFGASLRYAGRPASASPAVGYMSVHQKQQQDLVNDALNVE
Turning to B1, in assay [2], the binding entry is on record as “binds”.
